Counter-ions that a name gives are not always drawn. The full ranking holds about 1,000 compounds; the median of “cFRET/donor change relative to DMSO, normalised to beta-lapachone positive control (supercomplex I-IV assembly)” is about 0.18, and the lowest 2% start at about -1. The list shows a part of the results.
Test system: C2C12 (NDUFB8-AcGFP / COX8A-DsRed-Monomer FRET reporter)
Experiment: cFRET/donor change relative to DMSO, normalised to beta-lapachone positive control (supercomplex I-IV assembly) (fraction of beta-lapachone effect); higher = more respiratory supercomplex assembly
Conditions: 40 µM; 24 h
Description: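 Cells were treated with 40 uM compound for 24 h and imaged on an IN Cell Analyzer 6000. Corrected FRET was divided by donor signal (cFRET/donor) and measured in two replicate experiments. The score is (mean cFRET/donor of compound - mean DMSO) / (mean beta-lapachone 40 uM - mean DMSO). Compounds flagged for prominent cell death, abnormal morphology or decreased cell number were excluded.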

SMILES | cFRET/donor change
C#CCN(C)CCCOc1ccc(Cl)cc1Cl [Clorgyline hydrochloride] | 0.701
CCCCCCCCCCCCCCSCC(=O)O [Tetradecylthioacetic acid] | 0.393
CC(=O)/C(C)=N/O [2,3-Butanedione monoxime] | 0.0773
CC(C)NCC(O)c1cc(O)cc(O)c1 (configuration not stated) [Metaproterenol hemisulfate] | 0.113
CC(N)C(=O)OC(C)(C)Cc1ccc(Cl)cc1 (configuration not stated) [Alaproclate hydrochloride] | 0.279
CC(=O)OCC1=C(C(=O)O)N2C(=O)[C@@H](NC(=O)Cc3cccs3)[C@H]2SC1 [Cephalothin sodium] | 0.57
Cc1nc2n(c(=O)c1CCN1CCC(c3noc4cc(F)ccc34)CC1)CCCC2O (configuration not stated) [Paliperidone] | 0.519
Cc1ccccc1C(OCCN(C)C)c1ccccc1 (configuration not stated) [Orphenadrine hydrochloride] | 0.148
CC(C)NCC(O)c1ccc(O)c(O)c1 (single isomer, unassigned; (-)) [(-)-Isoproterenol hydrochloride] | 0.53
COc1ccccc1N1CCN(CCCCNC(=O)c2ccc3ccccc3c2)CC1 | 0.0888
Cc1cnc(C(=O)NCCc2ccc(S(=O)(=O)NC(=O)NC3CCCCC3)cc2)cn1 [Glipizide] | -0.0676
N=C(N)NCCCCN [Agmatine sulfate] | 0.125
C[C@H](CSC(=O)c1ccccc1)C(=O)N1C[C@@H](Sc2ccccc2)C[C@H]1C(=O)O [Zofenopril calcium] | -0.00819
COc1ccc2c(c1)CC[C@@H]1[C@@H]2CC[C@]2(C)[C@@H](NCCCCCCN3C(=O)CCC3=O)CC[C@@H]12 | 0.325
CCCCNc1ccc(C(=O)OCCN(C)C)cc1 [Tetracaine hydrochloride] | 0.0894
O=C(O)C1(C(=O)O)CCC1.[NH2-].[NH2-].[Pt+2] [Carboplatin] | 0.357
COC(=O)C(N)Cc1ccc(Cl)cc1 (racemic) [DL-p-Chlorophenylalanine methyl ester hydrochloride] | -0.089
N[C@H](C(=O)O)[C@H]1C[C@@H]1C(=O)O [(2S,1'S,2'S)-2-(carboxycyclopropyl)glycine] | 0.552
CCN1CCC[C@H]1CNC(=O)c1c(O)c(Cl)cc(Cl)c1OC [S(+)-Raclopride L-tartrate] | 0.365
O=C(O)c1cccnc1C(=O)O [Quinolinic acid] | 0.287
O=C(c1ccc(OCCCc2c[nH]cn2)cc1)C1CC1 [Ciproxifan hydrochloride] | 0.224
CC(C)[C@H](N)C(=O)OCC(CO)OCn1cnc2c(=O)[nH]c(N)nc21 (some centres not stated) [Valganciclovir hydrochloride hydrate] | -0.064

Part of the list above in order of heavy-atom count, low to high:
SMILES | cFRET/donor change
O=C(O)c1cccnc1C(=O)O [Quinolinic acid] | 0.287
CCCCCCCCCCCCCCSCC(=O)O [Tetradecylthioacetic acid] | 0.393
Cc1nc2n(c(=O)c1CCN1CCC(c3noc4cc(F)ccc34)CC1)CCCC2O (configuration not stated) [Paliperidone] | 0.519
